Data published in patent US20220016127A1, “COMPOSITIONS AND METHODS FOR INDUCING APPENDAGE AND LIMB REGENERATION” (priority 2020, published 2022).
Values joined by “and” are separate entries in the source; they are usually repeats but may differ in a detail not shown here. Equal values may be shown once. At least one compound was matched to its structure with a doubt left.

System: Aurelia ephyra
Experiment: Arm regeneration induction in amputated Aurelia ephyrae
Type: in vivo, Aurelia aurita
Details: meta-analysis across experiments
Protocol: Amputation. Strobilated ephyrae were fed daily with rotifers (Brachionus plicatilis) until amputation time. 2-3 days old ephyrae were anesthetized in 400 μM menthol and amputated using a razor blade mounted on an x-acto knife handle. After amputation, ephyrae were let to recover in bubbler cones (FIG. 7). Regeneration was assessed at various times until 1-2 weeks after amputation, before onset of maturation to medusa.
Inducing regeneration. Experimental setup. 0.5-1 L sand settling cones were repurposed as jellyfish aquaria (Nalgene Imhoff; FIG. 7). Each cone was equipped with an airline from a Tetra Whisper air pump 100 to create a gentle vertical current (˜1 bubble/sec, see FIG. 30). The conical geometry eliminates stagnant spots, where the ephyrae could get stuck. In this “bubbler cone” setup, the ephyrae were continually in water current either in the upward air bubble-generated current or the downward self-generated current. 500 mL artificial seawater and 30 ephyrae were placed in each cone to avoid crowding and fouling. Artificial seawater was changed every week. Nutrients. […]
Amputation. […] Regeneration was assessed at various times for 1-2 weeks after amputation, before onset of maturation to medusa. […]

## [Ar] [argon]
  95% CI of fold change in regeneration frequency (Risk Ratio treated vs control): 1.99, 3.3 and 1.99,3.3
